Data published in article PMC13411647.
These are yes or no findings as the source states them, for the method shown. Binding seen in cells or lysates may run through a third protein. Some results given as binding are weak or reduced against the parent protein; the word gives no strength.

The chains behind the UniProt entries cited, without tags or fusion partners.
UniProt Q14789: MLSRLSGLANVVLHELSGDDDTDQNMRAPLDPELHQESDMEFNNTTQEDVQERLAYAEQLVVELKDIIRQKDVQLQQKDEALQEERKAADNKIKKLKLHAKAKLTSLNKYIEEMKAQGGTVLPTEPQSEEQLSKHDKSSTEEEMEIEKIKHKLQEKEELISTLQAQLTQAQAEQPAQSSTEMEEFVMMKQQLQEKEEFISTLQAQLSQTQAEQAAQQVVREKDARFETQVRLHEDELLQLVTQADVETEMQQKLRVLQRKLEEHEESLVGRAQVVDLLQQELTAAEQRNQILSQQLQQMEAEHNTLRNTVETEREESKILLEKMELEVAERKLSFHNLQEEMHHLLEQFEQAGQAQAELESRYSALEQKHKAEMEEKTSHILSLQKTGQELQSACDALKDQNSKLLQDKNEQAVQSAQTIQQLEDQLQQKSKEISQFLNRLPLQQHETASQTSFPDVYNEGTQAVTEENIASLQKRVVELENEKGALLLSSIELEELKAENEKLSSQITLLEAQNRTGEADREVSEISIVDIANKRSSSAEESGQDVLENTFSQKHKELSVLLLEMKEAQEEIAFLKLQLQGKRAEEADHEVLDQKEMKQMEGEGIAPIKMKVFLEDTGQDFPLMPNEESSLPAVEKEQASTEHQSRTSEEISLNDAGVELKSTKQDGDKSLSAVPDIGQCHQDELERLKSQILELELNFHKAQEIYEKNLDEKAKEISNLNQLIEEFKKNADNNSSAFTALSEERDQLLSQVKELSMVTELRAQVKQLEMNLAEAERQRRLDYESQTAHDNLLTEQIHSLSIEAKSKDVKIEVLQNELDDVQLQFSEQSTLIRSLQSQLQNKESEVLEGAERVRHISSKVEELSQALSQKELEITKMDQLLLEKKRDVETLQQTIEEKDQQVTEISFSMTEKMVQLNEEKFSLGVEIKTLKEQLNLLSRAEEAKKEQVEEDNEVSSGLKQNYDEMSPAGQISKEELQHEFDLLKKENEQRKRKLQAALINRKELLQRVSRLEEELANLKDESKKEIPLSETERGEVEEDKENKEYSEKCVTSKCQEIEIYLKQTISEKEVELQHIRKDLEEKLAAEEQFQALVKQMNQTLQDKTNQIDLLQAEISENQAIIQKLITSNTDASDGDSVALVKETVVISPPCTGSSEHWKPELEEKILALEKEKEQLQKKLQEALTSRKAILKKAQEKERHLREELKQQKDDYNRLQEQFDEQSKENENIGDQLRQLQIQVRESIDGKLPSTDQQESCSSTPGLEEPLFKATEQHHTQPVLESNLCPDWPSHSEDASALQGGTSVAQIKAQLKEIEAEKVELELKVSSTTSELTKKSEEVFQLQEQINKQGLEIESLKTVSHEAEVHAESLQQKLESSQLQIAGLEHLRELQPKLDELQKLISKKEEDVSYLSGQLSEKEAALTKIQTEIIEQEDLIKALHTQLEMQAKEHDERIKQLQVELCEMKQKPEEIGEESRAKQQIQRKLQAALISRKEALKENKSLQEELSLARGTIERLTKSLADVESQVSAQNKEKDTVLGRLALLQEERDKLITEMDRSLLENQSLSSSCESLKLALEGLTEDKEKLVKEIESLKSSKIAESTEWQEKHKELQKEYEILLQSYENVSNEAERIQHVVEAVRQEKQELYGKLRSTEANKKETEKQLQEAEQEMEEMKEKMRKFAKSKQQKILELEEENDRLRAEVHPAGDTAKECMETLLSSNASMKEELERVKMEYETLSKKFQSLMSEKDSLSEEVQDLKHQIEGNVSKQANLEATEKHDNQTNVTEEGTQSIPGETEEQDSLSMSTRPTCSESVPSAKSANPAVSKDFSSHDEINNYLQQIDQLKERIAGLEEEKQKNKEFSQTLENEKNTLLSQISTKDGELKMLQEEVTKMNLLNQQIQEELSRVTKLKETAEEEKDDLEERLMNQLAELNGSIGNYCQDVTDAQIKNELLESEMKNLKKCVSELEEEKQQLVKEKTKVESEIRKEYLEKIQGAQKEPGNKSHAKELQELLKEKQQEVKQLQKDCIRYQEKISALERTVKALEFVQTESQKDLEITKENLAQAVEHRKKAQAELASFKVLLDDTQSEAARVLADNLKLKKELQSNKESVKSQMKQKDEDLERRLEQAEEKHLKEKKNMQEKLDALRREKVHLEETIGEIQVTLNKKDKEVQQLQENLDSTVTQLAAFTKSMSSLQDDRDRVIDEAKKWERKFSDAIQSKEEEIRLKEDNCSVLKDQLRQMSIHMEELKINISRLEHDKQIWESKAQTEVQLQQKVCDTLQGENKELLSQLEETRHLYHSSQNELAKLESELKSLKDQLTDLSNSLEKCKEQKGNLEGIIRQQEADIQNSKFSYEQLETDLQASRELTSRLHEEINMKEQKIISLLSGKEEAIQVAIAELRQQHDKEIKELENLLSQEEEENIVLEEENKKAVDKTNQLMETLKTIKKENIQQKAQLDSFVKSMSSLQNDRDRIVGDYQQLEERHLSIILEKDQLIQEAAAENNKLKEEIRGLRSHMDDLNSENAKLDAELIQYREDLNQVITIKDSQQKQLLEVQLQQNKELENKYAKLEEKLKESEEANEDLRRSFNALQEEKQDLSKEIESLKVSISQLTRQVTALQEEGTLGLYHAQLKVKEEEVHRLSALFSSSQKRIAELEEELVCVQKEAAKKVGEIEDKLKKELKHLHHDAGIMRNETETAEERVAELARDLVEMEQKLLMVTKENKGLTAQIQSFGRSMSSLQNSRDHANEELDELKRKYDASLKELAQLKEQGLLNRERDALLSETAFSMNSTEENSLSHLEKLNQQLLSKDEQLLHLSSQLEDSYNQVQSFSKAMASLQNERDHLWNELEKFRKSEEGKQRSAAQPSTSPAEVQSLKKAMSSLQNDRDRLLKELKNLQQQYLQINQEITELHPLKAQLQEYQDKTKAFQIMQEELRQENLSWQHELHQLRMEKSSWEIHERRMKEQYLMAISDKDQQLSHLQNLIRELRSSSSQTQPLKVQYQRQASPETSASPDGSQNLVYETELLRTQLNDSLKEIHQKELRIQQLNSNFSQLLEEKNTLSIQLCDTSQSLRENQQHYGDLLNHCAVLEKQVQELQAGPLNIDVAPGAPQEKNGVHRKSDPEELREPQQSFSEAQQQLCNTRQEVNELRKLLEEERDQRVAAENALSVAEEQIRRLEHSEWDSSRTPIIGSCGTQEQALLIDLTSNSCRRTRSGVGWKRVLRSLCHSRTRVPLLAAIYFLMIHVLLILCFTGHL

What was measured:
[1] = molecular target: T1, RAD51C (human (endogenous in HeLa-K)) (UniProt O43502); assay: co-IP; endogenous proteins in HeLa-K extracts; lysis buffer 50 mM HEPES, 130 mM NaCl, 1 mM DTT, 1% NP-40; primary antibody overnight at 4°C, Protein G-agarose beads 4 h at 4°C; control conditions, and DOX with co-treatment with ATM inhibitor (KU55933) or IPZ
T1 sequence: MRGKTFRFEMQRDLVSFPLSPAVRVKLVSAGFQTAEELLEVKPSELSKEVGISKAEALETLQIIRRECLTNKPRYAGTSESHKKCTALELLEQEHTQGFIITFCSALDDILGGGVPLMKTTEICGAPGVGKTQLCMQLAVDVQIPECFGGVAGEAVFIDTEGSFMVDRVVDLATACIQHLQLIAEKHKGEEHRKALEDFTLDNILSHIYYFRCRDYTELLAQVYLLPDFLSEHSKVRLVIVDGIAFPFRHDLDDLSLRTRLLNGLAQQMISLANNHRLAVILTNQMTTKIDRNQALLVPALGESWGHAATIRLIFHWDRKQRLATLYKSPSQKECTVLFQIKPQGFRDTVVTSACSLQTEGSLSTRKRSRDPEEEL

[2] = molecular target: T1, RAD51C (human (endogenous in HeLa-K)); assay: condition: only cells treated with DOX (40 μM, 3 h); co-IP; as a1, but HeLa-K cells treated with DOX alone (DSB induction) before lysis

binding [1]: binds
binding [2]: no binding
Substance: giantin (GOLGB1) (from UniProt Q14789 1-3259)
